Out of some 400,000 compounds screened, about 5,500 (1.4%) were called active. Inconclusive results, whose numbers are uncertain, are shown with a selection of clear calls. Calls come from the whole dose curve; as a rule, active = well fitted cell-killing curve with a large enough effect; inconclusive = small, poorly fitted or top-dose-only effect, or effect the other way; inactive = flat fitted curve, though single readings scatter. Potencies of inconclusive entries are doubtful fits and often do not repeat.
Test: qHTS assay for MDR1-selective chemotherapeutics: Primary screen using the parental adenocarcinoma cell KB-3-1; note: nearly all actives have a fitted effect of over 60% in size
Conditions: KB-3-1 viability, CellTiter-Glo ATP luminescence, 72 h; activity change, negative = cytotoxic: at 46.1 µM (top of the series)
Procedure, shortened: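 Cytotoxicity measured as CellTiter-Glo luminescence after 72 h at 37 C. Compound titrations were pinned onto drug-naive KB-3-1 parental adenocarcinoma cells grown in DMEM with 10% FBS, and normalized data fitted to concentration-response curves.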
% is set by controls: 0 for no effect and ±100 for the full control effect; potency is the fitted concentration of half-maximal effect.

SMILES	Potency	activity change, negative = cytotoxic
CNC(=O)c1nnsc1S(=O)(=O)c1ccc(Cl)cc1	inconclusive: 29.1 µM [cytotoxic, single point]	–
CCN(CC)CC1CN(N=Cc2ccc([N+](=O)[O-])o2)C(=O)O1 (stereo unspecified)	inconclusive: 29.1 µM [cytotoxic, single point]	–
Cc1ccccc1NC(=O)Nc1ccc(C(F)(F)F)cc1	inconclusive: 25.9 µM [cytotoxic, single point]	–
O=C(COC(=O)C1(c2ccc(Cl)cc2)CCCC1)Nc1ncc(C(F)(F)F)cc1Cl	inactive	–
C=Cc1ccc(CN2C(=O)N(c3ccc(CC)cc3)S(=O)(=O)c3ccccc32)cc1	–	inconclusive: -2.23%
O=C1c2cc(F)ccc2-n2c1nc1ccccc1c2=O	active: 6.51 µM	–
C/C(=N\NC(=O)CC1N=C(Cc2ccccc2)NNC1=O)c1ccc(C)cc1 (stereo unspecified)	inconclusive: 18.4 µM [cytotoxic, single point]	–
CC(CCc1ccccc1)NC(=O)COC(=O)c1ccc(NC(N)=O)cc1 (stereo unspecified)	inactive	–
Cc1ccc(SCc2cc(=O)[nH]c(/N=C(\N)Nc3ccccc3Sc3ccccc3)n2)cc1	inactive	–
CC(=O)N(Cc1ccc(F)cc1)C1=C(NCCc2ccccc2)C(=O)c2ccccc2C1=O	active: 8.2 µM	–
Cc1ccc(SC[C@H](Cc2ccccc2)N2CC[C@@H](NC(=O)OCc3ccccc3)CCC2=O)cc1	inconclusive: 29.1 µM [cytotoxic, single point]	–
COc1ccc(NC(=O)c2cccc(Oc3ccccc3)c2)cn1	active: 8.2 µM	–
CC(=O)N1CCc2cc(S(=O)(=O)NCCC(=O)NCCc3ccc(Cl)cc3)ccc21	inconclusive: 16.4 µM [cytotoxic, single point]	–
Cc1c(C=O)c2ccccc2n1CCOc1ccccc1F	inconclusive: 23.1 µM [cytotoxic, partial curve, poor fit]	–
O=C1N=c2ccccc2=C1c1sc(=S)n(Cc2ccccc2Cl)c1O	inconclusive: 20.6 µM [cytotoxic, single point]	–
COCCNC(=O)c1ccc(CSc2nc3ccncc3n2Cc2ccccc2)cc1	inactive	–
Cc1c(C(=O)NCc2cccs2)sc(=O)n1Cc1ccc(S(=O)(=O)N(C)C)cc1	inconclusive: 20.6 µM [cytotoxic, partial curve]	–
Cc1ccc(S(=O)(=O)N2C(=O)c3cccc4cccc2c34)cc1	–	inconclusive: -31.2% [cytotoxic]
CN(C)CCCNC(=O)CC1C[C@H](C(=O)N2CCCCC2)[C@@]2(CCc3ccccc3)c3[nH]c4ccccc4c3CCN2C1=O (stereo partly specified)	inactive	–
COC(=O)c1ccc(C(=O)OC)c(NC(=S)N2CCCCC2C)c1 (stereo unspecified)	inactive	–
CC1(C(=O)NS(=O)(=O)c2ccccc2)CCN1C(=O)COc1ccc(Cl)cc1 (stereo unspecified)	inactive	–
Cc1ccc(NC(=O)C2CCCO2)c(Br)c1 (stereo unspecified)	inconclusive: 0.164 µM [rising, full curve]	–
O=C(CN(Cc1ccc(Cl)cc1)C(=O)CNS(=O)(=O)c1ccccc1)NCC1CCCO1 (stereo unspecified)	inactive	–

SMILES	Potency	activity change, negative = cytotoxic
O=C(CSc1nnc(-c2cc3ccccc3cc2O)n1Cc1ccco1)c1ccc(F)cc1	inconclusive: 29.1 µM [cytotoxic, single point]	–
CCC(=O)N1CCc2cc(S(=O)(=O)CCC(=O)N3CCN(c4cc(C)ccc4C)CC3)ccc21	inactive	–
COc1cc2cnc(-c3ccccc3)c(-c3ccc(C#N)cc3)c2cc1OC	active: 13 µM	–
COc1ccc(Cn2nnc(C(=O)Nc3cc(OC)ccc3OC)c2N)cc1	inconclusive: 29.1 µM [cytotoxic, single point]	–
COc1ccc(OC)c(CCNC(=O)c2c(C)nn(-c3ccc(F)cc3)c2-n2cccc2)c1	inconclusive: 29.1 µM [cytotoxic, single point]	–
CC(=O)NS(=O)(=O)c1ccc(NC(=S)NC(=O)C2CCC2)cc1	inconclusive: 20.6 µM [rising, partial curve, poor fit]	–
NC1=NC[C@H](Cc2ccccc2)N1CCc1cc(C(F)(F)F)cc(C(F)(F)F)c1	inconclusive: 29.1 µM [cytotoxic, single point]	–
CC1(C)CC(C(CCN(Cc2ccccc2)C(=O)c2ccco2)c2ccc(F)cc2)CCO1 (stereo unspecified)	inconclusive: 29.1 µM [cytotoxic, single point]	–
COc1ccc2[nH]c3c(c2c1)CCN1C(=O)C(CC(=O)NCc2ccco2)C[C@H](C(=O)N2CCCCC2)[C@@]31CCc1ccccc1 (stereo partly specified)	inconclusive: 29.1 µM [cytotoxic, single point]	–
Cc1nnc(N2CCC(C(=O)NC3CCCCC3)CC2)c2nn(-c3ccc(Cl)cc3)c(C)c12	inactive	–
CCn1c(=O)cc(SCC(=O)NCCc2cc(OC)ccc2OC)c2ccccc21	inactive	–
CCOc1ccccc1C(=O)N[C@H](C(=O)OCC(=O)Nc1nnc(-c2ccccc2)o1)C(C)C	inactive	–
Cc1ccc(N2CCN(C(=O)c3cc(-c4ccc(F)cc4)[nH]c3C)CC2C)cc1 (stereo unspecified)	inconclusive: 29.1 µM [cytotoxic, single point]	–
Clc1ccc(C2=NCCN2)cc1	inconclusive: 13 µM [rising, partial curve, poor fit]	–
CN1CCN(S(=O)(=O)c2cccc(C(=O)NCc3ccccc3Cl)c2)CC1	inactive	–
CC(C)=C[C@@H]1C[C@H](C)[C@H]2CC[C@H](C)c3c(O)c(O)c(C)c1c32	inactive	–
Cc1cc(F)ccc1S(=O)(=O)Nc1ccc2c(c1)CCCN2C(=O)c1cccs1	inactive	–
COc1ccc(N2C(=O)C(CC(=O)Nc3ccc(F)cc3)N(Cc3ccc4c(c3)OCO4)C2=O)cc1 (stereo unspecified)	inactive	–
Cc1ccc(-c2cc3nn(-c4ccccc4)c(N)c3c(=O)o2)cc1	active: 20.6 µM	–
Cc1ccc(Nc2c(N)c(=O)oc3ccccc23)cc1	inconclusive: 29.1 µM [cytotoxic, single point]	–
CN(C(=O)COC(=O)c1cnc(Cl)c(Cl)c1)C1CCCCC1	inactive	–
Cc1cccn2c(=O)c3cc(C(=O)NCCN4CCOCC4)c(=N)n(Cc4ccc(F)cc4)c3nc12	active: 16.4 µM	–
COc1cccc(C2CC(c3cccs3)=NN2C(=O)CSc2nc3ccccc3s2)c1OC (stereo unspecified)	inconclusive: 20.6 µM [cytotoxic, partial curve, poor fit]	–

14 compounds from above, arranged by formula weight, ascending.
SMILES	Potency	activity change, negative = cytotoxic
Cc1ccc(Nc2c(N)c(=O)oc3ccccc23)cc1	inconclusive: 29.1 µM [cytotoxic, single point]	–
Cc1ccc(-c2cc3nn(-c4ccccc4)c(N)c3c(=O)o2)cc1	active: 20.6 µM	–
CN(C(=O)COC(=O)c1cnc(Cl)c(Cl)c1)C1CCCCC1	inactive	–
CC(=O)NS(=O)(=O)c1ccc(NC(=S)NC(=O)C2CCC2)cc1	inconclusive: 20.6 µM [rising, partial curve, poor fit]	–
COc1ccc(Cn2nnc(C(=O)Nc3cc(OC)ccc3OC)c2N)cc1	inconclusive: 29.1 µM [cytotoxic, single point]	–
NC1=NC[C@H](Cc2ccccc2)N1CCc1cc(C(F)(F)F)cc(C(F)(F)F)c1	inconclusive: 29.1 µM [cytotoxic, single point]	–
CCn1c(=O)cc(SCC(=O)NCCc2cc(OC)ccc2OC)c2ccccc21	inactive	–
Cc1cc(F)ccc1S(=O)(=O)Nc1ccc2c(c1)CCCN2C(=O)c1cccs1	inactive	–
COc1ccc(OC)c(CCNC(=O)c2c(C)nn(-c3ccc(F)cc3)c2-n2cccc2)c1	inconclusive: 29.1 µM [cytotoxic, single point]	–
CC1(C)CC(C(CCN(Cc2ccccc2)C(=O)c2ccco2)c2ccc(F)cc2)CCO1 (stereo unspecified)	inconclusive: 29.1 µM [cytotoxic, single point]	–
O=C(CSc1nnc(-c2cc3ccccc3cc2O)n1Cc1ccco1)c1ccc(F)cc1	inconclusive: 29.1 µM [cytotoxic, single point]	–
Cc1cccn2c(=O)c3cc(C(=O)NCCN4CCOCC4)c(=N)n(Cc4ccc(F)cc4)c3nc12	active: 16.4 µM	–
COc1cccc(C2CC(c3cccs3)=NN2C(=O)CSc2nc3ccccc3s2)c1OC (stereo unspecified)	inconclusive: 20.6 µM [cytotoxic, partial curve, poor fit]	–
COc1ccc2[nH]c3c(c2c1)CCN1C(=O)C(CC(=O)NCc2ccco2)C[C@H](C(=O)N2CCCCC2)[C@@]31CCc1ccccc1 (stereo partly specified)	inconclusive: 29.1 µM [cytotoxic, single point]	–
